# Laboratory results taken from PubChem BioAssay AID493014 (National Center for Advancing Translational Sciences (NCATS), 2011).
# This is one part of the list. These are further read-outs of the screen, such as a control signal, another cell line or another target. No call is given for them. Compounds called inactive in the main read-out are mostly missing here. The note in brackets gives the kind of curve behind each potency; many fits are weak.
# Test: qHTS Assay to Find Inhibitors of Chronic Active B-Cell Receptor Signaling
# Conditions: ABC-DLBCL IkBa-CBG/CBR reporter, luminescence ratio (green luciferase fused to IkBa over red control in TMD8 lymphoma cells), 4 h
# How it was run: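 Cell line TMD8 (human ABC DLBCL), stably expressing tet-inducible CBG68-IkBa fusion and CBR; IMDM/0.5% FBS; cpd up to 46 uM; dox induction, 4 h, 37C/5% CO2; dual luminescence; green/red ratio; MG132 control.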
# [1] = measured here: CBR red luminescence, cell number
# [2] = measured here: IkBa-CBG green luminescence
smiles,measurement,setting,value
Cc1cc(-c2ccccc2)c2c(=O)n(-c3ccccc3)[nH]c2n1,AC50,[1],"3.16 µM [falling, partial curve, poor fit]"
CCOC(=O)SC1=N/C(=C\c2ccc(N(C)C)cc2)C(=O)S1,AC50,[1],"5.17 µM [rising, full curve]"
CCCOc1ccc(C(=O)NC(=S)Nc2nc3ccc(C)cc3s2)cc1,AC50,[1],"0.794 µM [falling, full curve, poor fit]"
Cc1ccc(S/C=C\C(=O)c2ccccc2)cc1,AC50,[1],"18.4 µM [falling, single point]"
same,AC50,[2],"18.4 µM [falling, partial curve, poor fit]"
CC(=O)Nc1ccc(-c2csc(Nc3ncccn3)n2)cc1,AC50,[1],"1 µM [rising, partial curve, poor fit]"
NC(=S)N/N=C/c1c(O)c(Br)cc2oc3c(c12)CCCC3,AC50,[1],"0.501 µM [falling, partial curve, poor fit]"
O=C(/C=C/c1ccc(S(=O)(=O)N2CCOCC2)cc1)Nc1cc(F)ccc1F,AC50,[1],"5.17 µM [falling, full curve]"
COc1cccc(OC)c1OCCCSc1nc(C)cc(=O)[nH]1,AC50,[1],"18.4 µM [falling, single point]"
O=C(Cn1ccn(-c2ccc(F)c(Cl)c2)c(=O)c1=O)NCCc1ccccc1,AC50,[1],"1.64 µM [falling, full curve]"
COc1ccsc1C(=O)NCCN1CCOCC1,AC50,[1],"0.708 µM [falling, full curve, poor fit]"
CC(C)c1ccccc1NC(=O)COC(=O)c1cc([N+](=O)[O-])ccc1N1CCOCC1,AC50,[1],"5.17 µM [rising, partial curve, poor fit]"
COc1ccc(NS(=O)(=O)c2c(C)cc(C)cc2C)cc1,AC50,[1],"3.66 µM [falling, full curve, poor fit]"
CSc1nc(SCCO)c2sc3nc(-c4ccco4)c4c(c3c2n1)CC(C)(C)OC4,AC50,[1],"35.5 µM [falling, partial curve, poor fit]"
CCOc1ccccc1/C=N/Nc1nc2c(N)ncnc2n1[C@H]1O[C@@H](CO)[C@H](O)[C@@H]1O,AC50,[1],"5.01 µM [rising, full curve]"
same,AC50,[2],"8.91 µM [falling, partial curve]"
Cc1ccc(C)c(OCC(=O)Nc2ccc(C(=O)O)cc2NC(=O)COc2cc(C)ccc2C)c1,AC50,[1],"11.2 µM [falling, partial curve]"
COc1ccc(S(=O)(=O)N(C)CC(=O)N2CCCCC2)cc1Cl,AC50,[1],"23.1 µM [rising, partial curve, poor fit]"
CC(C)(C)NC(=S)NC(=O)C12CCC3CC(CC(C3)C1)C2,AC50,[1],"28.2 µM [rising, single point]"
O=C1OC(OC(=O)c2ccccc2Br)C(N2CCOCC2)=C1Cl (stereo not drawn),AC50,[1],"20.6 µM [falling, single point]"
COc1ccccc1-c1nn(Cc2ccccc2)cc1/C=C/C(=O)O,AC50,[1],"0.0891 µM [rising, full curve, poor fit]"
CS(=O)(=O)N(CC(=O)NCCC1=CCCCC1)C1CCCCC1,AC50,[1],"0.0651 µM [rising, full curve, poor fit]"
COc1cc(-c2nc(-c3ccc(NC(=O)c4ccc5c(c4)OCO5)cc3)no2)cc(OC)c1OC,AC50,[1],"7.31 µM [falling, partial curve, poor fit]"
C=C1c2ccccc2NC(=O)N1c1ccc(C)cc1,AC50,[1],"10.3 µM [falling, partial curve, poor fit]"
COc1cc(OC)cc(C(=O)NNC(=O)CN2C(=O)NC3(CCCC3)C2=O)c1,AC50,[1],"2.31 µM [rising, partial curve, poor fit]"
Cc1ccc(NC2=NC(c3ccc(C)cc3)n3c(nc(C)cc3=O)N2)cc1 (stereo not drawn),AC50,[1],"5.62 µM [rising, partial curve, poor fit]"
Cc1ccc(-c2cc3c(N=O)c4ccccc4c-3n[nH]2)cc1,AC50,[1],"2 µM [falling, partial curve, poor fit]"
CCCC1=Nc2cc(C(=O)NCCN3CCOCC3)ccc2Sc2ccccc21,AC50,[1],"8.91 µM [falling, partial curve, poor fit]"
c1ccc(-c2cc3c(NCC4COc5ccccc5O4)ncnc3s2)cc1 (stereo not drawn),AC50,[1],"29.1 µM [falling, single point]"
O=C(O)CCc1ccc(-c2ccccc2)n1-c1ccc(C(=O)O)cc1,AC50,[1],"28.2 µM [falling, single point]"
COc1cc(OC)c2c(-c3ccccc3)cc(=O)oc2c1C(CC(=O)N1CCOCC1)c1ccc(N(C)C)cc1 (stereo not drawn),AC50,[1],"2.82 µM [falling, partial curve]"
COc1ccc(S(=O)(=O)N/N=C(/C)c2cccc(NC(=O)c3ccccc3Cl)c2)cc1,AC50,[1],"10 µM [falling, partial curve, poor fit]"
N#Cc1ccccc1Cn1cc(/C=N/Nc2ccc([N+](=O)[O-])cn2)c2ccccc21,AC50,[1],"5.62 µM [rising, partial curve, poor fit]"
COc1cc2ccccc2cc1C(=O)N(CCN(C)C)c1nc2c(OC)ccc(OC)c2s1,AC50,[1],"15.8 µM [falling, partial curve, poor fit]"
CCOC(=O)C1=C(C)NC(=O)NC1c1ccc(OCC(=O)OC)c(OC)c1 (stereo not drawn),AC50,[1],"25.1 µM [rising, single point]"
OCCn1c(SCCOc2ccccc2)nc2ccccc21,AC50,[1],"11.6 µM [falling, partial curve, poor fit]"
COc1ccc(-c2ccc(CCC(=O)O)n2NC(=O)c2ccc(C(C)(C)C)cc2)cc1,AC50,[1],"11.2 µM [falling, single point]"
CCCCc1ccc(N2C(=O)[C@@H]3C(CC(N)=O)NC4(C(=O)Nc5ccc(F)cc54)[C@@H]3C2=O)cc1 (stereo partly drawn),AC50,[1],"29.1 µM [falling, single point]"
O=C1CN(C(=O)COC(=O)Cc2ccsc2)c2ccccc2N1,AC50,[1],"7.31 µM [rising, partial curve, poor fit]"
CC(C)CSC1=NSC2=NC(=O)/C(=C\c3coc4ccccc4c3=O)C(=N)N12,AC50,[1],"12.6 µM [falling, single point]"
Cc1csc(SCC(=O)Nc2sccc2C(N)=O)n1,AC50,[1],"12.6 µM [falling, partial curve, poor fit]"
CCOC(=O)c1cnc(SCc2nc(N)nc(Nc3ccccc3)n2)nc1N,AC50,[1],"9.2 µM [rising, partial curve]"
Cn1c(=O)[nH]c(=O)c2c1nc(Br)n2C/C=N/NC(=O)c1ccccc1,AC50,[1],"12.6 µM [falling, partial curve]"
Fc1cc(Br)ccc1Nc1nc2ccccc2n2nnnc12,AC50,[1],"10.3 µM [falling, partial curve]"
COc1ccc(C(=O)n2nc(-c3ccc(C)cc3)nc2N)cc1OC,AC50,[1],"0.0058 µM [falling, full curve, poor fit]"
N#C/C(=C\c1c(Cl)cccc1Cl)c1nc2ccccc2[nH]1,AC50,[1],"12.6 µM [falling, partial curve, poor fit]"
COc1cc(NC(=O)c2cc([N+](=O)[O-])ccc2N2CCOCC2)ccc1NC(=O)c1ccco1,AC50,[1],"0.501 µM [falling, full curve, poor fit]"
COc1cc(O)cc2cc3c(c(O)c12)C(=O)CC(C)(O)O3 (stereo not drawn),AC50,[1],"12.6 µM [falling, partial curve]"
CC1CCc2c(c3ccccc3n2C(=O)CCl)C1 (stereo not drawn),AC50,[1],"35.5 µM [rising, single point]"
O=C(NCCCN1CCCC1=O)NC12CC3CC(CC(C3)C1)C2,AC50,[1],"0.92 µM [rising, full curve, poor fit]"
Cc1nc(S/C(=C\c2ccc(-c3ccc(C(=O)O)c(Cl)c3)o2)C(=O)O)n[nH]1,AC50,[1],"35.5 µM [falling, single point]"
CCOC(=O)c1ccccc1NC(=O)COC(=O)CC(C)(C)CC1=NS(=O)(=O)c2ccccc2N1,AC50,[1],"22.4 µM [falling, single point]"
Cc1ccc(CNC(=O)COC(=O)CN2C(=O)C3CC=CCC3C2=O)cc1 (stereo not drawn),AC50,[1],"16.4 µM [rising, single point]"
Cc1ccnc(Nc2nc(-c3ccc(O)c(O)c3)cs2)c1,AC50,[1],"11.2 µM [falling, partial curve, poor fit]"
O=C(CCCCCN1C(=O)[C@@H]2Cc3ccccc3CN2C1=O)Nc1ccccc1F,AC50,[1],"5.01 µM [falling, full curve]"
O=C(CC1NCCc2ccccc21)Nc1ccc(Oc2ccccc2)cc1 (stereo not drawn),AC50,[1],"5.62 µM [falling, partial curve, poor fit]"
COc1ccccc1N1CCN(C(=O)C(C)N(c2ccccc2)S(C)(=O)=O)CC1 (stereo not drawn),AC50,[1],"18.4 µM [rising, single point]"
COc1ccccc1N1CCN(Cc2nc(N)nc(Nc3ccc(C)c(Cl)c3)n2)CC1,AC50,[1],"0.651 µM [rising, full curve, poor fit]"
O=C(Nc1ccc(N2CCCCC2)cc1)c1ccc(F)cc1,AC50,[1],"29.1 µM [falling, single point]"
COCCNC(=O)c1ccc2c(Cl)c3c(nc2c1)CCC3,AC50,[1],"3.16 µM [rising, partial curve, poor fit]"
COc1ccc(-c2oc(=O)c3cc(OC)c(OC)cc3c2C#CC2(O)CCCCC2)cc1,AC50,[1],"18.4 µM [falling, single point]"
COc1ccc(OC(=O)CN2C(=O)C3C4CCC(C4)C3C2=O)cc1 (stereo not drawn),AC50,[1],"9.2 µM [rising, partial curve, poor fit]"
C#CCOCCOCCOCCNc1nc(N2CCN(C(=O)CCCCCCCCCCNC(=O)[C@H](CCCCN)n3cc(CCO)nn3)CC2)nc(N2CCN(C(=O)CCCCCCCCCCNC(=O)[C@H](CCCN=C(N)N)n3cc(C[C@@H](C)CC)nn3)CC2)n1,AC50,[1],"18.4 µM [rising, partial curve]"

# At a glance, some entries already given:
smiles,measurement,setting,value
O=C1OC(OC(=O)c2ccccc2Br)C(N2CCOCC2)=C1Cl (stereo not drawn),AC50,[1],"20.6 µM [falling, single point]"
COc1ccccc1-c1nn(Cc2ccccc2)cc1/C=C/C(=O)O,AC50,[1],"0.0891 µM [rising, full curve, poor fit]"
CS(=O)(=O)N(CC(=O)NCCC1=CCCCC1)C1CCCCC1,AC50,[1],"0.0651 µM [rising, full curve, poor fit]"
COc1cc(-c2nc(-c3ccc(NC(=O)c4ccc5c(c4)OCO5)cc3)no2)cc(OC)c1OC,AC50,[1],"7.31 µM [falling, partial curve, poor fit]"
C=C1c2ccccc2NC(=O)N1c1ccc(C)cc1,AC50,[1],"10.3 µM [falling, partial curve, poor fit]"
COc1cc(OC)cc(C(=O)NNC(=O)CN2C(=O)NC3(CCCC3)C2=O)c1,AC50,[1],"2.31 µM [rising, partial curve, poor fit]"
Cc1ccc(NC2=NC(c3ccc(C)cc3)n3c(nc(C)cc3=O)N2)cc1 (stereo not drawn),AC50,[1],"5.62 µM [rising, partial curve, poor fit]"
Cc1ccc(-c2cc3c(N=O)c4ccccc4c-3n[nH]2)cc1,AC50,[1],"2 µM [falling, partial curve, poor fit]"
CCCC1=Nc2cc(C(=O)NCCN3CCOCC3)ccc2Sc2ccccc21,AC50,[1],"8.91 µM [falling, partial curve, poor fit]"
c1ccc(-c2cc3c(NCC4COc5ccccc5O4)ncnc3s2)cc1 (stereo not drawn),AC50,[1],"29.1 µM [falling, single point]"
O=C(O)CCc1ccc(-c2ccccc2)n1-c1ccc(C(=O)O)cc1,AC50,[1],"28.2 µM [falling, single point]"
COc1cc(OC)c2c(-c3ccccc3)cc(=O)oc2c1C(CC(=O)N1CCOCC1)c1ccc(N(C)C)cc1 (stereo not drawn),AC50,[1],"2.82 µM [falling, partial curve]"
COc1ccc(S(=O)(=O)N/N=C(/C)c2cccc(NC(=O)c3ccccc3Cl)c2)cc1,AC50,[1],"10 µM [falling, partial curve, poor fit]"
N#Cc1ccccc1Cn1cc(/C=N/Nc2ccc([N+](=O)[O-])cn2)c2ccccc21,AC50,[1],"5.62 µM [rising, partial curve, poor fit]"
COc1cc2ccccc2cc1C(=O)N(CCN(C)C)c1nc2c(OC)ccc(OC)c2s1,AC50,[1],"15.8 µM [falling, partial curve, poor fit]"
